Positions count from the first letter of the chain named. Results are given in words; binding and its absence hold for the method and conditions named. Some results given as binding are weak or reduced against the parent protein; the word gives no strength.
Experiments:
Assay in all cases: flow cytometry on cells; CHO/mock, CHO/Aggrus, CHO/Aggrus-G45A and CHO/Aggrus-D49A cells treated with mouse IgG Fc-conjugated human CLEC-2 (4 µg/ml), then Alexa Fluor 488-conjugated anti-mouse IgG; only the binder purified
[1] = biological target: T1, human Aggrus D49A, on CHO/Aggrus-D49A cells (human) (UniProt Q86YL7)
T1 sequence: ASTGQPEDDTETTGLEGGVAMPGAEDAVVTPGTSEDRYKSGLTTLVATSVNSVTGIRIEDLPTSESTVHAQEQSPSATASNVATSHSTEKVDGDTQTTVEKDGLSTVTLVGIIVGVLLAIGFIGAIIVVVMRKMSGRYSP

Amino acid sequences for entries named in this document (tags omitted). Residues count along the entry.
UniProt Q9P126, residues 55-229: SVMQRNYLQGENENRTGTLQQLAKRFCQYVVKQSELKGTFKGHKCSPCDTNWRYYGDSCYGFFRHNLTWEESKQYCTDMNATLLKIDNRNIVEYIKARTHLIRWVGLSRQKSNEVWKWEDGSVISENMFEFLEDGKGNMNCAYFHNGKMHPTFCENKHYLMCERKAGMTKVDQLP

[2] = biological target: T2, human Aggrus G45A, on CHO/Aggrus-G45A cells (human) (UniProt Q86YL7)
T2 sequence: T1 sequence with G23A, A27D

[3] = biological target: T3, human Aggrus, wild type, on CHO/Aggrus cells (human) (UniProt Q86YL7)
T3 sequence: T1 sequence with A27D

Measured: binding

mouse IgG Fc-conjugated recombinant human CLEC-2 protein (from UniProt Q9P126 55-229) (Fc fusion)
binds: [1] | [2] | [3]

From PMC3749157
